Results from patent publication US20130324597A1, “PHARMACEUTICAL COMPOSITION COMPRISING TRANS-[…] AND ITS USE IN THE TREATMENT OF INFECTIONS” (priority 2010, published 2013).
At least one structure is not confirmed: it was looked up by name or label, or the drawing left a doubt.

System: Staphylococcus And Enterococcus
Assay: MIC of pure components in Mueller Hinton gelose
Assay type: cell-based
Parameters: unit not given beside the values
Conditions: Staphylococcus And Enterococcus n = 14
Excerpt: Following a method allowing the dissolution of the active blend in a Mueller Hinton gelose the MIC has been measured with pure components of the active blends 1 to 9.

C=C1CC/C=C(\C)CC[C@@H]2[C@@H]1CC2(C)C [Caryophyllene, beta-caryophyllene]
MIC Range: 1250--->10000
